In the supplement of paper PMC10849652:
The other results are listed elsewhere or left out.

By UniProt entry, the sequences of proteins in these tests, tags left out. Where a name states a change or a piece, a line headed by the entry shows the natural chain unless it says otherwise.
UniProt Q08722, whole entry, looked up: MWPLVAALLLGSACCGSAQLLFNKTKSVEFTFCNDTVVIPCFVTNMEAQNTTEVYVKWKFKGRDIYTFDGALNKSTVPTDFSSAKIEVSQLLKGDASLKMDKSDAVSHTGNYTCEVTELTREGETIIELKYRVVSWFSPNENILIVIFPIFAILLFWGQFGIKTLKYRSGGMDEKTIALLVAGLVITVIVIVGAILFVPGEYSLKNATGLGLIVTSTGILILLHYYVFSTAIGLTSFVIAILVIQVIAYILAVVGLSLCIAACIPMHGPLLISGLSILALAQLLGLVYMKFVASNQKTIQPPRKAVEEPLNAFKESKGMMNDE
UniProt P45973, whole entry, looked up: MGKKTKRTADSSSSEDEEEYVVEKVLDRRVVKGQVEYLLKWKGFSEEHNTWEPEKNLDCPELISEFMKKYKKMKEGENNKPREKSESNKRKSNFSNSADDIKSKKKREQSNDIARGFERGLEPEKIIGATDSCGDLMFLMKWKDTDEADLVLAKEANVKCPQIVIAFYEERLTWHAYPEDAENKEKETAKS
UniProt P08174: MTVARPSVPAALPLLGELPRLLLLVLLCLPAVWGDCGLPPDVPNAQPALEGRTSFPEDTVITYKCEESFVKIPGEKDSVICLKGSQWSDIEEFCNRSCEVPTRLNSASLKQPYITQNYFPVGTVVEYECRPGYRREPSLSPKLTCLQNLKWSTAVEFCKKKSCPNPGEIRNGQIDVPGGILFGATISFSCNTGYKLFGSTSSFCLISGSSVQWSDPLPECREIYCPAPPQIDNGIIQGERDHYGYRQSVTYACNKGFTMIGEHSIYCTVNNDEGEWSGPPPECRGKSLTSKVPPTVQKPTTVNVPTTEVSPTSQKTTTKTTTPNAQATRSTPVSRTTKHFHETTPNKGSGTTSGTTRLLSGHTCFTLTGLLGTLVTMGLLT
UniProt O14618: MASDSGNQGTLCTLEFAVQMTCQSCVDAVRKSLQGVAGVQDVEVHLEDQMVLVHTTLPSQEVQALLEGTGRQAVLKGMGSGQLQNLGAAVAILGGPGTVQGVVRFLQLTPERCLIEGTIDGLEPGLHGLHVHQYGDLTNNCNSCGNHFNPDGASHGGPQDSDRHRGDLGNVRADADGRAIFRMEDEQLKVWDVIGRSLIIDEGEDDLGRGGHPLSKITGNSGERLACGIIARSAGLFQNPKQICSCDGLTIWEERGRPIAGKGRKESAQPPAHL
UniProt O60563, whole entry, looked up: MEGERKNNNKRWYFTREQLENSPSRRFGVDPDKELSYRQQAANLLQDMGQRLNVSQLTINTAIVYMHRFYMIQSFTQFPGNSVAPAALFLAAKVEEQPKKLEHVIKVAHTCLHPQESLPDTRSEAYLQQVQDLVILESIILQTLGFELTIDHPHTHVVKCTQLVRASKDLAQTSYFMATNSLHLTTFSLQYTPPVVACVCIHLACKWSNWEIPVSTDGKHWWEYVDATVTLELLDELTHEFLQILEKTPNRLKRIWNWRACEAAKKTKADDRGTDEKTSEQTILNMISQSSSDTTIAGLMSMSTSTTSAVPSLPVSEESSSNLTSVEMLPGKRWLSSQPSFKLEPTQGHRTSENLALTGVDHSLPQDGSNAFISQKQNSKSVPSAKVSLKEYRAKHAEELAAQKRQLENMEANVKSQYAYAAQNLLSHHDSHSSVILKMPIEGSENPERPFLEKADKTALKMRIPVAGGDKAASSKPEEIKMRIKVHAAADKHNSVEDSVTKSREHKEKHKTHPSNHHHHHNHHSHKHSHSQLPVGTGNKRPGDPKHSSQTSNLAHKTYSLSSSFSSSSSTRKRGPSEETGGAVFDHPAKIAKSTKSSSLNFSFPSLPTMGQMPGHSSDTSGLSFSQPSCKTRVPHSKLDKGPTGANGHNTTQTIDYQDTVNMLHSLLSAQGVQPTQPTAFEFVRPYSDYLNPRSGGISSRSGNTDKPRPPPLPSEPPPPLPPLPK
UniProt P42574: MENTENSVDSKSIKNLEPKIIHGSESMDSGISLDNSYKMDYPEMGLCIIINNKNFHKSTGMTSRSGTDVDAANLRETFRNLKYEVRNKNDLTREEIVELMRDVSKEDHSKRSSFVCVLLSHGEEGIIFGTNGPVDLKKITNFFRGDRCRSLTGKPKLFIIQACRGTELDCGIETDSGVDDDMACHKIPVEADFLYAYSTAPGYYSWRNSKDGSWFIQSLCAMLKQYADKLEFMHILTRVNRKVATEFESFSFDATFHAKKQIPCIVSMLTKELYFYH
UniProt P48509: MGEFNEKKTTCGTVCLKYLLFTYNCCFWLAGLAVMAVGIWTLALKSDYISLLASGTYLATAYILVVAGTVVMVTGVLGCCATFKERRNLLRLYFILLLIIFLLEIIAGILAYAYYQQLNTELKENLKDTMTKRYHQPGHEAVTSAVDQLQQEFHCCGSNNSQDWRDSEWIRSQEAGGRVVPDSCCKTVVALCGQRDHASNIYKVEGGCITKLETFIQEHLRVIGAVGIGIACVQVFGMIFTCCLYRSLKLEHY
UniProt A6NHX0: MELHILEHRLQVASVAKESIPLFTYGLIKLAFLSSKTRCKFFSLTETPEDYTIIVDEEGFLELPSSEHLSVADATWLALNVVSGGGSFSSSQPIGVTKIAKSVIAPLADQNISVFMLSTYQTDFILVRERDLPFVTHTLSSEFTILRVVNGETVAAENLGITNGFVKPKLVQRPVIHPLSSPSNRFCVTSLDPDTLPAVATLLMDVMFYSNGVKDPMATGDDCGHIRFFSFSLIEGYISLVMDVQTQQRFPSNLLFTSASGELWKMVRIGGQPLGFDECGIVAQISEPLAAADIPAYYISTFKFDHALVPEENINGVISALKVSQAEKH
UniProt O75794: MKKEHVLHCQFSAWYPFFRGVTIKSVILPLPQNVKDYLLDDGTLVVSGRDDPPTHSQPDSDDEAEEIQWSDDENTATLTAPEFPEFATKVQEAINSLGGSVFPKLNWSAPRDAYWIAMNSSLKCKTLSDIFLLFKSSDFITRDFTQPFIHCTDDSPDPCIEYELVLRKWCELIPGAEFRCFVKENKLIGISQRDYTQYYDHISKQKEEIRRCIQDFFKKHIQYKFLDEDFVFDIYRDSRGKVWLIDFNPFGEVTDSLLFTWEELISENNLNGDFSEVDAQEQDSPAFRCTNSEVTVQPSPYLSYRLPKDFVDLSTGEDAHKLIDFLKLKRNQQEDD
UniProt P83916, whole entry, looked up: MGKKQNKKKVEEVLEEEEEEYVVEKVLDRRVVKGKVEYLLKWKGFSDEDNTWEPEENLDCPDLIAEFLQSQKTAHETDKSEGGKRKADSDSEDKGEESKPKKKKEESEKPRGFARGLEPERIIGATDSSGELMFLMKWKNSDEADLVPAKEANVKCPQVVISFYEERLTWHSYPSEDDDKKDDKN
UniProt P51946: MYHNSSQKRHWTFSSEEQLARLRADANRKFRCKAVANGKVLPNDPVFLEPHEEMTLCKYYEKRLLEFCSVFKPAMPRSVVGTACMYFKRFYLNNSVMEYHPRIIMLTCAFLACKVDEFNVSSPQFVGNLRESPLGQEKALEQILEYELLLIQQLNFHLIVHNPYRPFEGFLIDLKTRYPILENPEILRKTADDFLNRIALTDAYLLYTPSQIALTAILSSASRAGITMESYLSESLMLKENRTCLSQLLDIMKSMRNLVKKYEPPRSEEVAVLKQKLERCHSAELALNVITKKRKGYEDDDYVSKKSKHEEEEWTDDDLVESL
UniProt Q8NHZ8, whole entry, looked up: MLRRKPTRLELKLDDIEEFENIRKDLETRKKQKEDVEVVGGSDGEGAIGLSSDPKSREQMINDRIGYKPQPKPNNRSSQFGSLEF
UniProt P14209: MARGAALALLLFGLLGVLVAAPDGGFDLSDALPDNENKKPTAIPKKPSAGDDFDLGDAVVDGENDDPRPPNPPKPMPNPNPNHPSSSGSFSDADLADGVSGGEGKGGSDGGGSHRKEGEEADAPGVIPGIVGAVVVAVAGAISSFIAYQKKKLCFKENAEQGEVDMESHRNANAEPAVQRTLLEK
UniProt Q5M9N0: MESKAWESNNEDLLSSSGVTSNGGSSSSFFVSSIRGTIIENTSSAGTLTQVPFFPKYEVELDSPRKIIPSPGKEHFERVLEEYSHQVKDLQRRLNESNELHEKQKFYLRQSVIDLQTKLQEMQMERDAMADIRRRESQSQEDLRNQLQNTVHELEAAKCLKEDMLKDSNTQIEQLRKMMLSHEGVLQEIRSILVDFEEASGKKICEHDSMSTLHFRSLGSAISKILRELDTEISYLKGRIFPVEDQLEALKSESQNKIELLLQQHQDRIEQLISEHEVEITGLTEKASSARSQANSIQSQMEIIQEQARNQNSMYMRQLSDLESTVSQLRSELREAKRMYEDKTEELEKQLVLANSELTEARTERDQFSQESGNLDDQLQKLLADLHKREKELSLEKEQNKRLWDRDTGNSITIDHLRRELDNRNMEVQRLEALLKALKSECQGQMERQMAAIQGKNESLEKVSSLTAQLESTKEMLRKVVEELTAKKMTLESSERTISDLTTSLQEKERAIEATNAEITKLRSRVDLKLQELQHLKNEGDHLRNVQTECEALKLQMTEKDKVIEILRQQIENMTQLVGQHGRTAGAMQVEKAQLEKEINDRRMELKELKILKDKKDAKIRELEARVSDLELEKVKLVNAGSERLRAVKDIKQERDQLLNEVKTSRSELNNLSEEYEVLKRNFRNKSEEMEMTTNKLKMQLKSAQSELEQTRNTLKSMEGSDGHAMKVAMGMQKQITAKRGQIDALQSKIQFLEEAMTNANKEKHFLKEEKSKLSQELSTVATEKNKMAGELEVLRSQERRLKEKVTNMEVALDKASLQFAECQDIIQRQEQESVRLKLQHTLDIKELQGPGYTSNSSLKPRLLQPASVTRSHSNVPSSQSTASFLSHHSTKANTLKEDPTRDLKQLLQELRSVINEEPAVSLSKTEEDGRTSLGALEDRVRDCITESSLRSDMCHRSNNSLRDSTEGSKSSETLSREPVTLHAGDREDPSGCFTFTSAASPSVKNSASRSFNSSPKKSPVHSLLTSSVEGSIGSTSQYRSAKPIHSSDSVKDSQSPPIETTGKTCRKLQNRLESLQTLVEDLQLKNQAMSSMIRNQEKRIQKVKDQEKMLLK
UniProt Q9P031: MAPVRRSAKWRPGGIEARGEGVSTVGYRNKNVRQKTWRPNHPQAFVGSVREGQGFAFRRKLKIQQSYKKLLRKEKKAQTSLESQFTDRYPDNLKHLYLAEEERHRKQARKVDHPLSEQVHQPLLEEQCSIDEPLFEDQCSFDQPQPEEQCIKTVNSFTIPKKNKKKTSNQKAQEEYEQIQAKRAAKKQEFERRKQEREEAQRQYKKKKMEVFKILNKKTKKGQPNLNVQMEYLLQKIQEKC
UniProt Q8IWY9: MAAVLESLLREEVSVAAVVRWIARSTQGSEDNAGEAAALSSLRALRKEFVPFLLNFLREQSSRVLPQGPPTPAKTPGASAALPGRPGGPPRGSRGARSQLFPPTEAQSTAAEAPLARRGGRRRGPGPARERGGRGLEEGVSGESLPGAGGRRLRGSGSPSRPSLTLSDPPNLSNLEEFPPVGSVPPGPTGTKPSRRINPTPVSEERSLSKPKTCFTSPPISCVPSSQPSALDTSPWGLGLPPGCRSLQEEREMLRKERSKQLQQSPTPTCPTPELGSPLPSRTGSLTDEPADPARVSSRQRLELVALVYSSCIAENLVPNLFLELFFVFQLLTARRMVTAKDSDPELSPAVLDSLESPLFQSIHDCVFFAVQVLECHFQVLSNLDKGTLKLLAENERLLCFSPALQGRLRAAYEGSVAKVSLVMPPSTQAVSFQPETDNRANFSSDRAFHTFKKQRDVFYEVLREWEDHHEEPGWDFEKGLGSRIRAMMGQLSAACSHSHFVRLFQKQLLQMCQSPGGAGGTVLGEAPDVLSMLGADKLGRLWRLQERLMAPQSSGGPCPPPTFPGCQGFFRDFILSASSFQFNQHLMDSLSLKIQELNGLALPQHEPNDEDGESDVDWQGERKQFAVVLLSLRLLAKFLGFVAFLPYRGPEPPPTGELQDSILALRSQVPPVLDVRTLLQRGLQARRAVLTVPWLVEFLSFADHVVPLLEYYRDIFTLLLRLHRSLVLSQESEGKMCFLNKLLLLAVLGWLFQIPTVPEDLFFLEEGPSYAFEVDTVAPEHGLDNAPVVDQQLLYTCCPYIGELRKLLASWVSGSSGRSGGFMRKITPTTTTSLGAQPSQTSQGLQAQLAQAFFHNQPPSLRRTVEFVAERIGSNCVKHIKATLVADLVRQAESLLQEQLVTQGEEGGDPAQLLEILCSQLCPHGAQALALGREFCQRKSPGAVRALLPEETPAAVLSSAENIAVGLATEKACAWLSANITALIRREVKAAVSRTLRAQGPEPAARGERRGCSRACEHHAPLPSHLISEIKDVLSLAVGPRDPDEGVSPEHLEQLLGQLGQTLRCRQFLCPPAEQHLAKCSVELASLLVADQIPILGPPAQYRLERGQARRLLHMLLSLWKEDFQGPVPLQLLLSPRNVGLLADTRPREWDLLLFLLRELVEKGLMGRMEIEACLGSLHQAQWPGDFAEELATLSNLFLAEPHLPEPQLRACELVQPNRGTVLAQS

How the values were obtained:
Assay in all cases: log2 fold change, soluble protein after heating vs DMSO (PISA); higher = thermal stabilisation; K562 cells, 10 uM, 30 min; active = over 0.2 and 3.5 SD of the protein, either way, in both replicates (recomputed)
[1] = compound: COC1=CC=C(C=C1)CN2C=CC3=C2C=C(C=C3)C(=O)NO
Outline: (§1)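 Values are thermal stability changes relative to control samples and are taken from duplicates. They are stated as log2 fold changes. Before quantification by TMTpro 16plex LC-MS/MS with equalised channel sums, K562 cells at 2×10^6 cells/mL were treated with 10 μM compound for 30 min, heated in aliquots for 3 min across 48°C-58°C, pooled, extracted in PBS with 0.5% NP-40 at 4°C, and centrifuged at 21,000xg for 90 min to give the soluble supernatant.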

[2] = compound: CON(C)C(=O)N1N=C(c2cc(F)ccc2F)S[C@@]1(CCCN)c1ccccc1 [filanesib]
Outline: as §1

[3] = compound: CO[C@H]1C[C@@H]2CC[C@@H](C)[C@@](O)(O2)C(=O)C(=O)N2CCCC[C@H]2C(=O)O[C@H]([C@H](C)C[C@@H]2CC[C@H](n3cnnn3)[C@H](OC)C2)CC(=O)[C@H](C)/C=C(\C)[C@@H](O)[C@@H](OC)C(=O)[C@H](C)C[C@H](C)/C=C/C=C/C=C/1C [zotarolimus]
Outline: as §1

[4] = compound: COc1cc(C(=O)O)ccc1NC(=O)[C@@H]1N[C@@H](CC(C)(C)C)[C@](C#N)(c2ccc(Cl)cc2F)[C@H]1c1cccc(Cl)c1F [idasanutlin]
Outline: as §1

[5] = compound: COc1cc(Nc2ncc3c(n2)-c2ccc(Cl)cc2C(c2c(F)cccc2OC)=NC3)ccc1C(=O)O [alisertib]
Outline: as §1

[6] = compound: COc1cc2nc(-c3cc(F)ccc3O)nc(N[C@@H]3CNC[C@H]3C(C)(C)O)c2cc1OC
Outline: as §1

[7] = compound: COc1cc2ncnc(Nc3ccc(F)c(Cl)c3)c2cc1OCCCN1CCOCC1 [gefitinib]
Outline: as §1

[8] = compound: COc1cccc2cc(-c3nc([C@H]4CC[C@H](C(=O)O)CC4)n4ncnc(N)c34)[nH]c12
Outline: as §1

[9] = compound: CS(=O)(=O)CCNCc1ccc(-c2ccc3ncnc(Nc4ccc(OCc5cccc(F)c5)c(Cl)c4)c3c2)o1 [lapatinib]
Outline: as §1

[10] = compound: CS(=O)(=O)N1CCN(Cc2cc3nc(-c4cccc5[nH]ncc45)nc(N4CCOCC4)c3s2)CC1 [pictilisib]
Outline: as §1

[11] = compound: CS(=O)(=O)c1ccc(-c2cnc(N)c(C(=O)Nc3ccccc3)n2)cc1
Outline: as §1

[12] = compound: C[C@@H](Oc1cc(-c2cnn(C3CCNCC3)c2)cnc1N)c1c(Cl)ccc(F)c1Cl [crizotinib]
Outline: as §1

[13] = compound: C[C@@H]1COCCN1C2=NC(=NC(=C2)C3(CC3)S(=O)(=O)C)C4=C5C=CNC5=CC=C4
Outline: as §1

[14] = compound: C[C@H](C1=CC=C(C=C1)C(=O)NC2=C3C=CNC3=NC=C2)N
Outline: as §1

[15] = compound: C[C@H](Nc1ncnc2nc[nH]c12)c1cc2cccc(Cl)c2c(=O)n1-c1ccccc1 [duvelisib]
Outline: as §1

[16] = compound: Cc1cc(Nc2cc(CN3CCOCC3)c3nc(C)c(Cc4ccc(Cl)cc4F)n3n2)n[nH]1 [gandotinib]
Outline: as §1

[17] = compound: Cc1cc(Nc2cc(N3CCN(C)CC3)nc(Sc3ccc(NC(=O)C4CC4)cc3)n2)n[nH]1 [tozasertib]
Outline: as §1

[18] = compound: Cc1cc(SCc2sc(-c3ccc(C(F)(F)F)cc3)nc2C)ccc1OCC(=O)O
Outline: as §1

[19] = compound: Cc1ccc(-n2nc(C(C)(C)C)cc2NC(=O)Nc2ccc(OCCN3CCOCC3)c3ccccc23)cc1 [doramapimod]
Outline: as §1

[20] = compound: Cc1ccc(C(=O)N(CCCN)[C@@H](c2nc3cc(Cl)ccc3c(=O)n2Cc2ccccc2)C(C)C)cc1 [ispinesib]
Outline: as §1

Measured: log2 fold change

CD47 (UniProt Q08722)
inactive: [1] -0.124 | [2] 0.005 | [3] -0.044 | [4] -0.029 | [5] -0.078 | [6] 0.058 | [7] 0.015 | [8] 0.057 | [9] -0.053 | [10] 0.058 | [11] 0.026 | [12] 0.116 | [13] 0.012 | [14] -0.119 | [15] -0.003 | [16] -0.016 | [17] -0.027 | [18] -0.028 | [19] -0.022 | [20] 0.009

CBX5 (UniProt P45973)
inactive: [1] 0.119 | [2] -0.046 | [3] 0.029 | [4] -0.014 | [5] -0.062 | [6] 0.003 | [7] 0.024 | [8] 0.022 | [9] 0.019 | [10] 0.106 | [11] 0.012 | [12] 0.128 | [13] -0.037 | [14] -0.058 | [16] -0.015 | [18] 0.059 | [19] -0.045 | [20] 0.092

CD55 isoform 7 (UniProt P08174)
inactive: [1] -0.115 | [2] 0.086 | [3] 0.001 | [4] 0.038 | [5] -0.144 | [6] 0.012 | [7] 0.104 | [8] -0.136 | [9] 0.031 | [10] 0.005 | [11] -0.023 | [12] 0.081 | [13] -0.096 | [14] -0.14 | [16] 0.052 | [18] -0.031 | [19] 0.02 | [20] 0.132

CD53 (UniProt P19397)
inactive: [1] -0.1 | [2] 0.025 | [3] -0.022 | [4] 0.084 | [5] -0.04 | [6] 0.154 | [7] 0.053 | [8] 0.102 | [9] -0.208 | [10] 0.276 | [11] 0.101 | [12] 0.047 | [13] 0.005 | [14] -0.084 | [16] -0.016 | [18] -0.11 | [19] 0.103 | [20] 0.023

CCS (UniProt O14618)
inactive: [1] -0.058 | [2] -0.032 | [3] -0.007 | [4] 0.038 | [5] -0.018 | [6] -0.025 | [7] 0.002 | [8] -0.018 | [9] -0.008 | [10] -0.037 | [11] -0.003 | [12] -0.017 | [13] 0.143 | [14] -0.011 | [15] 0.026 | [16] -0.174 | [17] 0.042 | [18] 0.047 | [19] -0.004 | [20] -0.01

CCNT1 (UniProt O60563)
inactive: [1] -0.05 | [2] 0.13 | [3] 0.044 | [4] 0.109 | [5] -0.093 | [7] 0.021 | [8] -0.158 | [9] 0.098 | [10] -0.049 | [11] -0.124 | [12] -0.088 | [13] -0.098 | [14] 0.13 | [16] -0.1 | [18] 0.076 | [19] 0.181 | [20] -0.277
active: [6] -0.371

CASP3 (UniProt P42574)
inactive: [1] 0.004 | [2] -0.002 | [3] 0.029 | [4] 0.072 | [5] -0.103 | [6] 0.025 | [7] 0.002 | [8] -0.018 | [9] 0.017 | [10] 0.006 | [11] 0.017 | [12] 0.036 | [13] -0.059 | [14] -0.057 | [16] -0.019 | [18] -0.05 | [19] -0.022 | [20] -0.004

CD151 (UniProt P48509)
inactive: [1] -0.045 | [2] 0.108 | [3] -0.048 | [4] -0.12 | [5] 0.075 | [6] 0.111 | [7] 0.001 | [8] -0.024 | [9] 0.012 | [10] 0.116 | [11] -0.151 | [12] 0.208 | [13] 0.07 | [14] -0.089 | [16] -0.19 | [18] -0.043 | [19] -0.056 | [20] 0.068

CASTOR2 (UniProt A6NHX0)
inactive: [1] 0.04 | [2] -0.042 | [3] -0.038 | [4] 0.027 | [5] -0.08 | [6] 0.194 | [7] -0.053 | [8] 0.063 | [9] -0.108 | [10] -0.042 | [11] -0.053 | [12] 0.045 | [13] 0.088 | [14] -0.022 | [16] -0.018 | [18] 0.008 | [19] 0.037 | [20] 0.018

CDC123 (UniProt O75794)
inactive: [1] 0.005 | [2] -0.043 | [3] -0.016 | [4] 0.032 | [5] -0.048 | [6] 0.024 | [7] -0.057 | [8] 0.001 | [9] 0.017 | [10] -0.027 | [11] -0.001 | [13] 0.074 | [14] -0.032 | [16] 0.044 | [18] 0.115 | [19] 0.003 | [20] 0.013
active: [12] -0.246

CBX1 (UniProt P83916)
inactive: [2] -0.016 | [3] 0.008 | [4] 0.038 | [5] -0.059 | [6] -0.086 | [7] 0.021 | [8] 0.003 | [9] 0.037 | [10] -0.046 | [11] -0.03 | [12] 0.001 | [13] 0.043 | [14] -0.08 | [16] 0.004 | [18] -0.056 | [19] 0.105 | [20] 0.04
active: [1] 0.41

CCNH (UniProt P51946)
inactive: [1] 0.043 | [2] 0.005 | [3] -0.044 | [4] 0.018 | [5] -0.011 | [6] 0.026 | [7] -0.03 | [8] -0.002 | [9] 0.023 | [10] 0.007 | [11] -0.033 | [12] 0.033 | [13] 0.048 | [14] -0.031 | [16] 0.013 | [18] -0.01 | [19] -0.086 | [20] 0.098

CDC26 (UniProt Q8NHZ8)
inactive: [1] -0.031 | [2] 0.085 | [3] -0.011 | [4] -0.053 | [5] -0.023 | [6] 0 | [7] 0.003 | [8] -0.017 | [9] -0.023 | [10] -0.125 | [11] 0.036 | [12] 0.153 | [13] 0.016 | [14] 0.212 | [16] -0.033 | [18] -0.021 | [19] -0.017 | [20] 0.406

Two entries drawn at random from those above:
CDC26 (UniProt Q8NHZ8)
inactive: [1] -0.031 | [2] 0.085 | [3] -0.011 | [4] -0.053 | [5] -0.023 | [6] 0 | [7] 0.003 | [8] -0.017 | [9] -0.023 | [10] -0.125 | [11] 0.036 | [12] 0.153 | [13] 0.016 | [14] 0.212 | [16] -0.033 | [18] -0.021 | [19] -0.017 | [20] 0.406

CBX1 (UniProt P83916)
inactive: [2] -0.016 | [3] 0.008 | [4] 0.038 | [5] -0.059 | [6] -0.086 | [7] 0.021 | [8] 0.003 | [9] 0.037 | [10] -0.046 | [11] -0.03 | [12] 0.001 | [13] 0.043 | [14] -0.08 | [16] 0.004 | [18] -0.056 | [19] 0.105 | [20] 0.04
active: [1] 0.41

The list continues.

CD99 (UniProt P14209)
inactive: [1] -0.017 | [2] 0.16 | [3] -0.034 | [4] 0.15 | [5] -0.075 | [6] 0.107 | [7] 0.001 | [8] 0.03 | [9] -0.023 | [10] 0.003 | [11] 0.14 | [12] 0.157 | [13] 0.124 | [14] -0.034 | [16] 0.059 | [17] -0.013 | [19] -0.003

CCDC158 (UniProt Q5M9N0)
inactive: [1] 0.029 | [2] 0.153 | [3] 0.067 | [4] 0.117 | [5] -0.008 | [6] -0.057 | [7] -0.097 | [8] -0.051 | [9] 0.037 | [10] -0.16 | [11] 0.066 | [12] 0.128 | [13] -0.239 | [14] 0.023 | [15] -0.129 | [16] -0.013 | [18] 0.017 | [19] -0.082 | [20] 0.01

CCDC59 (UniProt Q9P031)
inactive: [1] 0.024 | [2] 0.301 | [3] -0.008 | [4] 0.225 | [5] -0.124 | [6] -0.013 | [7] -0.066 | [8] -0.054 | [9] -0.034 | [10] -0.234 | [11] 0.09 | [12] -0.084 | [13] 0 | [14] 0.389 | [16] 0.186 | [18] 0.006 | [19] 0.164 | [20] -0.136

CDAN1 (UniProt Q8IWY9)
inactive: [1] -0.032 | [2] -0.017 | [3] 0.008 | [4] -0.088 | [5] -0.041 | [6] -0.044 | [7] -0.034 | [8] 0.185 | [9] 0.005 | [10] 0.011 | [11] 0.058 | [12] 0.024 | [13] 0.175 | [14] 0.066 | [16] -0.054 | [18] 0.008 | [19] 0.034 | [20] -0.02
